Consider one molecule from article PMC509278.

Amino acid sequences for entries named in this document (tags omitted).
UniProt Q03330: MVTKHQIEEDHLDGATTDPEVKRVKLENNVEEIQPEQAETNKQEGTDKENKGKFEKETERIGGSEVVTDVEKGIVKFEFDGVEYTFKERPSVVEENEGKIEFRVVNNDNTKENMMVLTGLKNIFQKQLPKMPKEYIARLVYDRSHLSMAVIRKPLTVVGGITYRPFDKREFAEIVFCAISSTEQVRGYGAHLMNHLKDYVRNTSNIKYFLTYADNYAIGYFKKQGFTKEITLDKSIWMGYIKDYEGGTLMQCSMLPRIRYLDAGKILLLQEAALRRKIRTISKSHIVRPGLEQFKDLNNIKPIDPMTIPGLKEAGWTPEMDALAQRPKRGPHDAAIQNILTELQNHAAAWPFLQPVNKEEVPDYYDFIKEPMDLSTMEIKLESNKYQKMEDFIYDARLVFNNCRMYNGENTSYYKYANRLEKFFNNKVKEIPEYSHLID

Results are given in words; binding and its absence hold for the method and conditions named. Some results given as binding are weak or reduced against the parent protein; the word gives no strength.

The target in this assay is Gcn5p (yeast (endogenous in strain UCC1111)) (UniProt Q03330). In words: SEC; Superose 6 HR 10/30 in DN(350) of HatB3.1 partially purified from yeast nuclear extract (DEAE, CM flow-through, Mono Q, 75% ammonium sulfate); peak fractions blotted with anti-Gcn5p, anti-Ada2p and anti-Ada3p. For orientation: In gel filtration, larger molecules generally elute earlier.

B1: Ada3p (protein, UniProt P32494 1-702)
chain: MPRHGRRGKLPKGEKLPKKEGGDNTPSKLLSSMLKTLDLTFERDIGMLNGKSVRSIPNKKTLLELQSQLDSLNEILGTIARGDQETIEALRKIRDSKNEKQANDEKQETSNADGQHESSTATEETNIIDKGVQSPPKPPPSNEISGTIENDVESIKQAADNMAKEEINEDKDLQVHRDQPREKRPFDSETENRATENENTQRPDNKKQKIDVDKMENDPTVKNPKSEFVVSQTLPRAAAALGLFNEEGLESTGEDFLKKKYNVASYPTNDLKDLLPGELPDMDFSHPKPTNQIQFNTFLAFVENFFKDLSDDNLKFLKMKYIIPDSLQFDKTYDPEVNPFIIPKLGPLYTDVWFKDENDKNSAYKKPSPYSNDASTILPKKSANELDDNALESGSISCGPLLSRLLSAVLKDDNDKSELQSSKIIRDGGLPRTGGEDDIQSFRNNNNDTVDMTLSQENGPSVQTPDNDIDEEASFQAKLAENKGSNGGTTSTLPQQIGWITNGINLDYPTFEERLKRELKYVGIYMNLPKDENNPNSDDPDWVTGREDDEISAELRELQGTLKQVTKKNQKRKAQLIPLVERQLAWQEYSSILEDLDKQIDQAYVKRIRVPKKRKKHHTAASNNVNTGTTSQIAQQKAANSSLKSLLDKRQRWINKIGPLFDKPEIMKRIPNESVFKDMDQEEDEDEADVFAQNTNKDVELN
Turning to B1, the binding entry is listed as “binds”.
